PubChem BioAssay AID1259405 | NCATS | 2018
This is a random part of about 50,000 reagents. About 4,000 of them (8%) were called active. 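Mouse siRNA library applied to hamster cells; one well for each siRNA.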 Unmarked entries are inactive. Reagents against one gene are numbered here.

- Test: 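Mouse-designed siRNAs used to find CHO productivity engineering targets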 (primary screen)
- Cell system: Chinese hamster CHO-K1 ovary cells with stable secreted eGFP expression
- Knock-down reagent: single siRNA against mouse genes, 0.8 pmol siRNA per well (2 µl of 400 nM stock)
- Timing: 3 days
- Measured: 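Per-well intracellular GFP measured by laser scanning cytometry, plus viability from ATP luminescence, each relative to plate median of non-targeting control wells, in %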
- Reading the numbers: GFP, % of control: higher = more GFP per well, higher productivity; viability (ATP), % of control: higher = more viable cells (more ATP)
- Rule for the call: 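a knock-down is called active if GFP reaches 120% or more of non-targeting control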

target gene	reagent	GFP, % of control	viability (ATP), % of control
Dnajb3 (GeneID 15504)	1	94.6	75.3
Dnajb3 (GeneID 15504)	2	121 (active)	90.4
Dnajb3 (GeneID 15504)	3	41.8	48.3
Amfr (GeneID 23802)	1	68.3	65.1
Amfr (GeneID 23802)	2	70.7	82.3
Amfr (GeneID 23802)	3	93.4	106
Zfp593 (GeneID 68040)	1	112	142
Zfp593 (GeneID 68040)	2	84	97.4
Zfp593 (GeneID 68040)	3	61.2	44.4
Slc7a8 (GeneID 50934)	1	78.3	69
Slc7a8 (GeneID 50934)	2	121 (active)	119
Slc7a8 (GeneID 50934)	3	87.6	75.8
Tet3 (GeneID 194388)	1	79.9	52.8
Tet3 (GeneID 194388)	2	61.4	83.4
Tet3 (GeneID 194388)	3	73.5	82.1
Fstl5 (GeneID 213262)	1	78.4	66.9
Fstl5 (GeneID 213262)	2	120 (active)	132
Rpusd2 (GeneID 271842)	1	88.3	94.9
Rpusd2 (GeneID 271842)	2	131 (active)	111
Rpusd2 (GeneID 271842)	3	70.5	73.6
Stk25 (GeneID 59041)	1	122 (active)	84.6
H6pd (GeneID 100198)	1	101	69.3
H6pd (GeneID 100198)	2	62.7	57.1
H6pd (GeneID 100198)	3	62.7	61.7
1700034H15Rik (GeneID 98736)	1	69.6	69.2
1700034H15Rik (GeneID 98736)	2	49.2	55.5
1700034H15Rik (GeneID 98736)	3	60.5	76.8
Acy1 (GeneID 109652)	1	97.8	87.6
Acy1 (GeneID 109652)	2	84	76.6
Acy1 (GeneID 109652)	3	64.6	23.4
Cdh5 (GeneID 12562)	1	124 (active)	79.5
Cdh5 (GeneID 12562)	2	26.3	26.9
Cdh5 (GeneID 12562)	3	80.8	90.3
Nkx6-1 (GeneID 18096)	1	52.1	74.8
Nkx6-1 (GeneID 18096)	2	46.6	57.3
Knstrn (GeneID 51944)	1	80.3	61.7
Knstrn (GeneID 51944)	2	79.1	70.8
Knstrn (GeneID 51944)	3	62.4	66.5
Tnnc2 (GeneID 21925)	1	32.7	37.9
Tnnc2 (GeneID 21925)	2	97.2	113
Metap2 (GeneID 56307)	1	111	87.4
Metap2 (GeneID 56307)	2	62.5	56.6
Metap2 (GeneID 56307)	3	41.5	36.2
Sv2a (GeneID 64051)	1	111	81.7
Sv2a (GeneID 64051)	2	98.3	95.7
Sv2a (GeneID 64051)	3	75.5	88.5
2510009E07Rik (GeneID 72190)	1	45.8	77.7
2510009E07Rik (GeneID 72190)	2	57.6	72.7
2510009E07Rik (GeneID 72190)	3	52.3	60.6
Snrk (GeneID 20623)	1	54.5	62.9
Tnfrsf10b (GeneID 21933)	1	87.4	79.1
Tnfrsf10b (GeneID 21933)	2	76.9	77.6
Tnfrsf10b (GeneID 21933)	3	96.5	86
Paqr4 (GeneID 76498)	1	111	91
Paqr4 (GeneID 76498)	2	72.5	79.3
Paqr4 (GeneID 76498)	3	73.8	91.4
Rab11fip4 (GeneID 268451)	1	52.1	55.5
Rab11fip4 (GeneID 268451)	2	110	81.5
Rab11fip4 (GeneID 268451)	3	62.3	69.8
Lingo2 (GeneID 242384)	1	72	61.3
Lingo2 (GeneID 242384)	2	90.8	62.4
Lingo2 (GeneID 242384)	3	80.9	71.2
Rpgrip1 (GeneID 77945)	1	55.2	53.1
Rpgrip1 (GeneID 77945)	2	60.1	65.8
Rpgrip1 (GeneID 77945)	3	56.4	49.9
Zfp932 (GeneID 69504)	1	67.5	54.1
Zfp932 (GeneID 69504)	2	69.1	90.2
Zfp932 (GeneID 69504)	3	49.6	60.7
Or7a36 (GeneID 259074)	1	46.3	42
Or7a36 (GeneID 259074)	2	67.3	62.6
Or7a36 (GeneID 259074)	3	89.3	70.4
Gbp4 (GeneID 17472)	1	68.6	56.2
Gbp4 (GeneID 17472)	2	47.7	64.3
Gbp4 (GeneID 17472)	3	31.8	25.6
Nadsyn1 (GeneID 78914)	1	48.6	51.7
Nadsyn1 (GeneID 78914)	2	93.1	69.4
Nadsyn1 (GeneID 78914)	3	95.2	127
Defb3 (GeneID 27358)	1	44.6	35.4
Defb3 (GeneID 27358)	2	36.2	53
Defb3 (GeneID 27358)	3	113	86.2
Ffar1 (GeneID 233081)	1	96.4	81.2
Ffar1 (GeneID 233081)	2	77.2	71
Ffar1 (GeneID 233081)	3	187 (active)	79.5
Nat8f1 (GeneID 66116)	1	89.2	56
Nat8f1 (GeneID 66116)	2	67.7	78.3
Nat8f1 (GeneID 66116)	3	126 (active)	70.5
Igsf6 (GeneID 80719)	1	89.1	94.1
Igsf6 (GeneID 80719)	2	135 (active)	63.7
Igsf6 (GeneID 80719)	3	91.6	92.5
Cstf3 (GeneID 228410)	1	85.6	61.2
Cstf3 (GeneID 228410)	2	62	46.8
Cstf3 (GeneID 228410)	3	105	90.2
Aspa (GeneID 11484)	1	75.1	75.9
Aspa (GeneID 11484)	2	269 (active)	110
Pip5k1a (GeneID 18720)	1	58.8	57.8
Kel (GeneID 23925)	1	85.7	104
Kel (GeneID 23925)	2	72.6	73.6
Kel (GeneID 23925)	3	70.7	54.5
Spin2c (GeneID 278240)	1	80.3	74.3
Spin2c (GeneID 278240)	2	69.2	72.3
Spin2c (GeneID 278240)	3	94.9	115
Smc1a (GeneID 24061)	1	160 (active)	132
Smc1a (GeneID 24061)	2	76.7	99.5
Kitl (GeneID 17311)	1	57.3	33.9
Kitl (GeneID 17311)	2	48.6	48.5
Kitl (GeneID 17311)	3	82.2	115
Trim42 (GeneID 78911)	1	27.6	24.5
Trim42 (GeneID 78911)	2	89.1	90.2
Trim42 (GeneID 78911)	3	90.6	118

Entries listed so far whose gene name starts with G or g (3):
target gene	reagent	GFP, % of control	viability (ATP), % of control
Gbp4 (GeneID 17472)	1	68.6	56.2
Gbp4 (GeneID 17472)	2	47.7	64.3
Gbp4 (GeneID 17472)	3	31.8	25.6
